According to PMC8833953:
Results are given in words; binding and its absence hold for the method and conditions named. In cells and extracts the contact can be indirect. A result given as binding can be weak or reduced; the word gives no strength.

Sequences of proteins named here, by UniProt entry; tags and fusion partners are left off. A change or cut given only in a name is not applied to a line headed by its entry.
UniProt P67775: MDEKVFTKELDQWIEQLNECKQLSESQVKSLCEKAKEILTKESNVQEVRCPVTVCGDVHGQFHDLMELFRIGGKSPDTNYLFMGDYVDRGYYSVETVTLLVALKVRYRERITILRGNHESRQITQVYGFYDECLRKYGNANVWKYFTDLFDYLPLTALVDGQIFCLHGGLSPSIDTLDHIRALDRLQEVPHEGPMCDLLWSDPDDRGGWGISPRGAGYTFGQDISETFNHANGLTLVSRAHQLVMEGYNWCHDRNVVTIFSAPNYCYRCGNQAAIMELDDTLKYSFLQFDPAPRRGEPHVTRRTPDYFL
UniProt Q01105: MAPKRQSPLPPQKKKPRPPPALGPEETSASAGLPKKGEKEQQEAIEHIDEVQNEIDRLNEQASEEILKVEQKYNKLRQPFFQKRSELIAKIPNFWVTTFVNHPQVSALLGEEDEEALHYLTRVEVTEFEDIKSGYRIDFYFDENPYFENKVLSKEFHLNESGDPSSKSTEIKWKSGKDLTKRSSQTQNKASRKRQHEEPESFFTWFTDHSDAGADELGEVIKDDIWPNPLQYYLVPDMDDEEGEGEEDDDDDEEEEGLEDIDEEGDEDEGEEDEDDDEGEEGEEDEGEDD

Molecular target: catalytic unit of PP2A (PP2Ac) (human (endogenous in OPM-2 and MM.1S)) (UniProt P67775)
Assay: co-IP; 500 ug lysate (50 mM HEPES pH 7.5, 150 mM NaCl, 1% Triton X-100, 10% glycerol) incubated with anti-PP2A (Millipore 05-421) or control IgG overnight at 4 C, protein A/G magnetic beads, blotted for I2PP2A and PP2Ac; OPM-2 ishGFI1 cells with or without dox (GFI1 KD); MM.1S EV and GFI1 o/e cells untreated or treated with THI (10 uM, 2 h) or SK1-I (5 uM, 2 h)

binding: binds
Substance: I2PP2A/SET (from UniProt Q01105 1-290)
